# The supplement of paper PMC8728848
# The other results are listed elsewhere or left out.
# B1: CBP21 (Serratia marcescens), O83009 (protein)
# chain: MNKTSRTLLSLGLLSAAMFGVSQQANAHGYVESPASRAYQCKLQLNTQCGSVQYEPQSVEGLKGFPQAGPADGHIASADKSTFFELDQQTPTRWNKLNLKTGPNSFTWKLTARHSTTSWRYFITKPNWDASQPLTRASFDLTPFCQFNDGGAIPAAQVTHQCNIPADRSGSHVILAVWDIADTANAFYQAIDVNLSK
# Assays:
# Test in all cases: glycan array binding signal (z-score within array); higher = stronger binding
# Details in all cases: glycan notation: IUPAC condensed, linker removed
# [1] = target: GlcNAc(a1-6)Gal(b1-4)GlcNAc
# Outline: (§1)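 Glycan array data came from 3228 arrays in the Consortium for Functional Glycomics database, and only arrays with an available protein sequence were kept. Glycan names were put into IUPAC-condensed notation, and columns mapping to the same glycan were averaged. The binding signal is a within-array Z-score, averaged across arrays of one protein sequence run at different concentrations or buffers and across linkers. A negative Z-score can be read as non-binding.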
# [2] = target: GlcNAc(b1-2)Gal(b1-3)GalNAc
# Outline: as §1
# [3] = target: GlcNAc(b1-2)Man(a1-3)[GlcNAc(b1-2)Man(a1-6)]Man(b1-4)GlcNAc(b1-4)GlcNAc
# Outline: as §1
# [4] = target: GlcNAc(b1-2)Man(a1-3)[GlcNAc(b1-2)Man(a1-6)]Man(b1-4)GlcNAc(b1-4)[Fuc(a1-6)]GlcNAc
# Outline: as §1
# [5] = target: GlcNAc(b1-2)Man(a1-3)[GlcNAc(b1-4)][GlcNAc(b1-2)Man(a1-6)]Man(b1-4)GlcNAc(b1-4)GlcNAc
# Outline: as §1
# [6] = target: GlcNAc(b1-2)Man(a1-3)[GlcNAc(b1-4)][GlcNAc(b1-2)Man(a1-6)]Man(b1-4)GlcNAc(b1-4)[Fuc(a1-6)]GlcNAc
# Outline: as §1
# [7] = target: GlcNAc(b1-2)[GlcNAc(b1-4)]Man(a1-3)[GlcNAc(b1-2)Man(a1-6)]Man(b1-4)GlcNAc(b1-4)GlcNAc
# Outline: as §1
# [8] = target: GlcNAc(b1-2)[GlcNAc(b1-4)]Man(a1-3)[GlcNAc(b1-4)][GlcNAc(b1-2)Man(a1-6)]Man(b1-4)GlcNAc(b1-4)GlcNAc
# Outline: as §1
# [9] = target: GlcNAc(b1-2)[GlcNAc(b1-4)]Man(a1-3)[GlcNAc(b1-4)][GlcNAc(b1-2)[GlcNAc(b1-6)]Man(a1-6)]Man(b1-4)GlcNAc(b1-4)GlcNAc
# Outline: as §1
# [10] = target: GlcNAc(b1-2)[GlcNAc(b1-4)]Man(a1-3)[GlcNAc(b1-4)][GlcNAc(b1-2)[GlcNAc(b1-6)]Man(a1-6)]Man(b1-4)GlcNAc(b1-4)[Fuc(a1-6)]GlcNAc
# Outline: as §1
# [11] = target: GlcNAc(b1-2)[GlcNAc(b1-6)]Man(a1-6)[GlcNAc(b1-2)Man(a1-3)]Man(b1-4)GlcNAc(b1-4)GlcNAc
# Outline: as §1
# [12] = target: GlcNAc(b1-2)[GlcNAc(b1-6)]Man(a1-6)[GlcNAc(b1-2)Man(a1-3)]Man(b1-4)GlcNAc(b1-4)[Fuc(a1-6)]GlcNAc
# Outline: as §1
# [13] = target: GlcNAc(b1-2)[GlcNAc(b1-6)]Man(a1-6)[GlcNAc(b1-4)][GlcNAc(b1-2)Man(a1-3)]Man(b1-4)GlcNAc(b1-4)GlcNAc
# Outline: as §1
# GlcNAc(b1-3)Fuc = target: GlcNAc(b1-3)Fuc
# Outline: as §1
# GlcNAc(b1-3)Gal = target: GlcNAc(b1-3)Gal
# Outline: as §1
# [14] = target: GlcNAc(b1-3)Gal(b1-3)GalNAc
# Outline: as §1
# GlcNAc(b1-3)Gal(b1-4)Glc = target: GlcNAc(b1-3)Gal(b1-4)Glc
# Outline: as §1
# [15] = target: GlcNAc(b1-3)Gal(b1-4)GlcNAc
# Outline: as §1
# [16] = target: GlcNAc(b1-3)Gal(b1-4)GlcNAc(b1-2)Man(a1-3)[GlcNAc(b1-3)Gal(b1-4)GlcNAc(b1-2)Man(a1-6)]Man(b1-4)GlcNAc(b1-4)GlcNAc
# Outline: as §1
# [17] = target: GlcNAc(b1-3)Gal(b1-4)GlcNAc(b1-2)Man(a1-3)[GlcNAc(b1-3)Gal(b1-4)GlcNAc(b1-2)Man(a1-6)]Man(b1-4)GlcNAc(b1-4)[Fuc(a1-6)]GlcNAc
# Outline: as §1
# [18] = target: GlcNAc(b1-3)Gal(b1-4)GlcNAc(b1-2)[GlcNAc(b1-3)Gal(b1-4)GlcNAc(b1-6)]Man(a1-6)[GlcNAc(b1-3)Gal(b1-4)GlcNAc(b1-2)Man(a1-3)]Man(b1-4)GlcNAc(b1-4)GlcNAc
# Outline: as §1
# [19] = target: GlcNAc(b1-3)Gal(b1-4)GlcNAc(b1-3)Gal(b1-4)GlcNAc
# Outline: as §1
# [20] = target: GlcNAc(b1-3)Gal(b1-4)GlcNAc(b1-3)Gal(b1-4)GlcNAc(b1-2)Man(a1-3)[GlcNAc(b1-3)Gal(b1-4)GlcNAc(b1-3)Gal(b1-4)GlcNAc(b1-2)Man(a1-6)]Man(b1-4)GlcNAc(b1-4)GlcNAc
# Outline: as §1
# [21] = target: GlcNAc(b1-3)Gal(b1-4)GlcNAc(b1-3)Gal(b1-4)GlcNAc(b1-2)Man(a1-3)[GlcNAc(b1-3)Gal(b1-4)GlcNAc(b1-3)Gal(b1-4)GlcNAc(b1-2)Man(a1-6)]Man(b1-4)GlcNAc(b1-4)[Fuc(a1-6)]GlcNAc
# Outline: as §1
# [22] = target: GlcNAc(b1-3)Gal(b1-4)GlcNAc(b1-3)Gal(b1-4)GlcNAc(b1-2)[GlcNAc(b1-3)Gal(b1-4)GlcNAc(b1-3)Gal(b1-4)GlcNAc(b1-6)]Man(a1-6)[GlcNAc(b1-3)Gal(b1-4)GlcNAc(b1-3)Gal(b1-4)GlcNAc(b1-2)Man(a1-3)]Man(b1-4)GlcNAc(b1-4)[Fuc(a1-6)]GlcNAc
# Outline: as §1
# [23] = target: GlcNAc(b1-3)Gal(b1-4)GlcNAc(b1-3)Gal(b1-4)GlcNAc(b1-3)Gal(b1-4)GlcNAc(b1-2)Man(a1-3)[GlcNAc(b1-3)Gal(b1-4)GlcNAc(b1-3)Gal(b1-4)GlcNAc(b1-3)Gal(b1-4)GlcNAc(b1-2)Man(a1-6)]Man(b1-4)GlcNAc(b1-4)GlcNAc
# Outline: as §1
# [24] = target: GlcNAc(b1-3)Gal(b1-4)GlcNAc(b1-3)Gal(b1-4)GlcNAc(b1-3)Gal(b1-4)GlcNAc(b1-2)Man(a1-3)[GlcNAc(b1-3)Gal(b1-4)GlcNAc(b1-3)Gal(b1-4)GlcNAc(b1-3)Gal(b1-4)GlcNAc(b1-2)Man(a1-6)]Man(b1-4)GlcNAc(b1-4)[Fuc(a1-6)]GlcNAc
# Outline: as §1
# [25] = target: GlcNAc(b1-3)Gal(b1-4)GlcNAc(b1-3)Gal(b1-4)GlcNAc(b1-3)Gal(b1-4)GlcNAc(b1-2)[GlcNAc(b1-3)Gal(b1-4)GlcNAc(b1-3)Gal(b1-4)GlcNAc(b1-3)Gal(b1-4)GlcNAc(b1-6)]Man(a1-6)[GlcNAc(b1-3)Gal(b1-4)GlcNAc(b1-3)Gal(b1-4)GlcNAc(b1-3)Gal(b1-4)GlcNAc(b1-2)Man(a1-3)]Man(b1-4)GlcNAc(b1-4)[Fuc(a1-6)]GlcNAc
# Outline: as §1
# [26] = target: GlcNAc(b1-3)Gal(b1-4)GlcNAc(b1-3)Gal(b1-4)GlcNAc(b1-3)Gal(b1-4)GlcNAc(b1-3)Gal(b1-4)GlcNAc(b1-2)Man(a1-3)[GlcNAc(b1-3)Gal(b1-4)GlcNAc(b1-3)Gal(b1-4)GlcNAc(b1-3)Gal(b1-4)GlcNAc(b1-3)Gal(b1-4)GlcNAc(b1-2)Man(a1-6)]Man(b1-4)GlcNAc(b1-4)GlcNAc
# Outline: as §1
# [27] = target: GlcNAc(b1-3)Gal(b1-4)GlcNAc(b1-3)Gal(b1-4)GlcNAc(b1-3)Gal(b1-4)GlcNAc(b1-3)Gal(b1-4)GlcNAc(b1-2)Man(a1-3)[GlcNAc(b1-3)Gal(b1-4)GlcNAc(b1-3)Gal(b1-4)GlcNAc(b1-3)Gal(b1-4)GlcNAc(b1-3)Gal(b1-4)GlcNAc(b1-2)Man(a1-6)]Man(b1-4)GlcNAc(b1-4)[Fuc(a1-6)]GlcNAc
# Outline: as §1
# [28] = target: GlcNAc(b1-3)Gal(b1-4)GlcNAc(b1-3)Gal(b1-4)GlcNAc(b1-3)Gal(b1-4)GlcNAc(b1-3)Gal(b1-4)GlcNAc(b1-2)[GlcNAc(b1-3)Gal(b1-4)GlcNAc(b1-3)Gal(b1-4)GlcNAc(b1-3)Gal(b1-4)GlcNAc(b1-3)Gal(b1-4)GlcNAc(b1-6)]Man(a1-6)[GlcNAc(b1-3)Gal(b1-4)GlcNAc(b1-3)Gal(b1-4)GlcNAc(b1-3)Gal(b1-4)GlcNAc(b1-3)Gal(b1-4)GlcNAc(b1-2)Man(a1-3)]Man(b1-4)GlcNAc(b1-4)[Fuc(a1-6)]GlcNAc
# Outline: as §1
# [29] = target: GlcNAc(b1-3)Gal(b1-4)GlcNAc(b1-3)Gal(b1-4)GlcNAc(b1-3)GalNAc
# Outline: as §1
# [30] = target: GlcNAc(b1-3)Gal(b1-4)GlcNAc(b1-3)GalNAc
# Outline: as §1
# [31] = target: GlcNAc(b1-3)Gal(b1-4)GlcNAc(b1-3)[GlcNAc(b1-3)Gal(b1-4)GlcNAc(b1-3)]GalNAc
# Outline: as §1
# [32] = target: GlcNAc(b1-3)Gal(b1-4)GlcNAc(b1-6)[Gal(b1-3)]GalNAc
# Outline: as §1
# [33] = target: GlcNAc(b1-3)Gal(b1-4)GlcNAc(b1-6)[GlcNAc(b1-3)Gal(b1-3)]GalNAc
# Outline: as §1
# [34] = target: GlcNAc(b1-3)Gal(b1-4)GlcNAc(b1-6)[GlcNAc(b1-3)]Gal(b1-4)GlcNAc
# Outline: as §1
# GlcNAc(b1-3)GalNAc = target: GlcNAc(b1-3)GalNAc
# Outline: as §1
# GlcNAc(b1-3)Man = target: GlcNAc(b1-3)Man
# Outline: as §1
# [35] = target: GlcNAc(b1-3)[GlcNAc(b1-4)][GlcNAc(b1-6)]GlcNAc
# Outline: as §1
# [36] = target: GlcNAc(b1-3)[GlcNAc(b1-6)]Gal(b1-4)GlcNAc
# Outline: as §1
# [37] = target: GlcNAc(b1-3)[GlcNAc(b1-6)]GalNAc
# Outline: as §1
# [38] = target: GlcNAc(b1-4)Gal(b1-4)GlcNAc
# Outline: as §1
# GlcNAc(b1-4)GlcNAc = target: GlcNAc(b1-4)GlcNAc
# Outline: as §1
# [39] = target: GlcNAc(b1-4)GlcNAc(b1-4)GlcNAc
# Outline: as §1
binder,measurement,setting,value
B1,glycan array binding signal (z-score),[1],-0.193
same,glycan array binding signal (z-score),[2],-1.05
same,glycan array binding signal (z-score),[3],-0.889
same,glycan array binding signal (z-score),[4],2.05
same,glycan array binding signal (z-score),[5],-0.341
same,glycan array binding signal (z-score),[6],-0.613
same,glycan array binding signal (z-score),[7],-0.435
same,glycan array binding signal (z-score),[8],1.71
same,glycan array binding signal (z-score),[9],-0.854
same,glycan array binding signal (z-score),[10],-0.659
same,glycan array binding signal (z-score),[11],-1.68
same,glycan array binding signal (z-score),[12],1.12
same,glycan array binding signal (z-score),[13],-0.381
same,glycan array binding signal (z-score),GlcNAc(b1-3)Fuc,-0.382
same,glycan array binding signal (z-score),GlcNAc(b1-3)Gal,-0.728
same,glycan array binding signal (z-score),[14],0.04
same,glycan array binding signal (z-score),GlcNAc(b1-3)Gal(b1-4)Glc,0.312
same,glycan array binding signal (z-score),[15],-0.039
same,glycan array binding signal (z-score),[16],0.081
same,glycan array binding signal (z-score),[17],0.333
same,glycan array binding signal (z-score),[18],-1.37
same,glycan array binding signal (z-score),[19],-1.78
same,glycan array binding signal (z-score),[20],-0.251
same,glycan array binding signal (z-score),[21],3.08
same,glycan array binding signal (z-score),[22],-0.108
same,glycan array binding signal (z-score),[23],-0.644
same,glycan array binding signal (z-score),[24],1.37
same,glycan array binding signal (z-score),[25],-0.325
same,glycan array binding signal (z-score),[26],0.77
same,glycan array binding signal (z-score),[27],0.553
same,glycan array binding signal (z-score),[28],0.87
same,glycan array binding signal (z-score),[29],0.539
same,glycan array binding signal (z-score),[30],0.342
same,glycan array binding signal (z-score),[31],0.901
same,glycan array binding signal (z-score),[32],-0.256
same,glycan array binding signal (z-score),[33],0.429
same,glycan array binding signal (z-score),[34],-1.31
same,glycan array binding signal (z-score),GlcNAc(b1-3)GalNAc,-1.19
same,glycan array binding signal (z-score),GlcNAc(b1-3)Man,-1.44
same,glycan array binding signal (z-score),[35],-0.033
same,glycan array binding signal (z-score),[36],0.08
same,glycan array binding signal (z-score),[37],-1.06
same,glycan array binding signal (z-score),[38],0.145
same,glycan array binding signal (z-score),GlcNAc(b1-4)GlcNAc,0.426
same,glycan array binding signal (z-score),[39],0.014

# Given as tab-separated lines: entries from further up.
binder	measurement	setting	value
B1	glycan array binding signal (z-score)	[36]	0.08
same	glycan array binding signal (z-score)	[37]	-1.06
same	glycan array binding signal (z-score)	[38]	0.145
same	glycan array binding signal (z-score)	GlcNAc(b1-4)GlcNAc	0.426
